From PMC7946307
No constants are given. Whether binding was seen depends on the method and setting. In cells and extracts the contact can be indirect. Binding can be weak; no strength is given.

Columns and labels:
[1] = biological target: T1, PLD6, endogenous in mouse testis (mouse (endogenous in testis)) (UniProt Q5SWZ9); experiment: co-IP; endogenous proteins from 2 pairs of P21 or P28 mouse testes (control or Mov10l1^fl/yama Ngn3-Cre) lysed in RIPA buffer (10 mM Tris pH 8.0, 140 mM NaCl, 1% Triton X-100, 0.1% deoxycholate, 0.1% SDS, 1 mM EDTA); 1-2 ug primary antibody, protein G Dynabeads, 4 washes in RIPA; immunoblot
T1 sequence: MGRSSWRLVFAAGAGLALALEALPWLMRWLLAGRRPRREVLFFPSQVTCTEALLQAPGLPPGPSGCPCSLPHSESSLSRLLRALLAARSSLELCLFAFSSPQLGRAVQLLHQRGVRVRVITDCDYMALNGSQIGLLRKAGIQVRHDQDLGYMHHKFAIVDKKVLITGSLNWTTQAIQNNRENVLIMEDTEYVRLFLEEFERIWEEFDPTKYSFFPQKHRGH

[2] = biological target: T2, TDRD1, endogenous in mouse testis (mouse (endogenous in testis)) (UniProt Q99MV1); experiment: as above
T2 sequence: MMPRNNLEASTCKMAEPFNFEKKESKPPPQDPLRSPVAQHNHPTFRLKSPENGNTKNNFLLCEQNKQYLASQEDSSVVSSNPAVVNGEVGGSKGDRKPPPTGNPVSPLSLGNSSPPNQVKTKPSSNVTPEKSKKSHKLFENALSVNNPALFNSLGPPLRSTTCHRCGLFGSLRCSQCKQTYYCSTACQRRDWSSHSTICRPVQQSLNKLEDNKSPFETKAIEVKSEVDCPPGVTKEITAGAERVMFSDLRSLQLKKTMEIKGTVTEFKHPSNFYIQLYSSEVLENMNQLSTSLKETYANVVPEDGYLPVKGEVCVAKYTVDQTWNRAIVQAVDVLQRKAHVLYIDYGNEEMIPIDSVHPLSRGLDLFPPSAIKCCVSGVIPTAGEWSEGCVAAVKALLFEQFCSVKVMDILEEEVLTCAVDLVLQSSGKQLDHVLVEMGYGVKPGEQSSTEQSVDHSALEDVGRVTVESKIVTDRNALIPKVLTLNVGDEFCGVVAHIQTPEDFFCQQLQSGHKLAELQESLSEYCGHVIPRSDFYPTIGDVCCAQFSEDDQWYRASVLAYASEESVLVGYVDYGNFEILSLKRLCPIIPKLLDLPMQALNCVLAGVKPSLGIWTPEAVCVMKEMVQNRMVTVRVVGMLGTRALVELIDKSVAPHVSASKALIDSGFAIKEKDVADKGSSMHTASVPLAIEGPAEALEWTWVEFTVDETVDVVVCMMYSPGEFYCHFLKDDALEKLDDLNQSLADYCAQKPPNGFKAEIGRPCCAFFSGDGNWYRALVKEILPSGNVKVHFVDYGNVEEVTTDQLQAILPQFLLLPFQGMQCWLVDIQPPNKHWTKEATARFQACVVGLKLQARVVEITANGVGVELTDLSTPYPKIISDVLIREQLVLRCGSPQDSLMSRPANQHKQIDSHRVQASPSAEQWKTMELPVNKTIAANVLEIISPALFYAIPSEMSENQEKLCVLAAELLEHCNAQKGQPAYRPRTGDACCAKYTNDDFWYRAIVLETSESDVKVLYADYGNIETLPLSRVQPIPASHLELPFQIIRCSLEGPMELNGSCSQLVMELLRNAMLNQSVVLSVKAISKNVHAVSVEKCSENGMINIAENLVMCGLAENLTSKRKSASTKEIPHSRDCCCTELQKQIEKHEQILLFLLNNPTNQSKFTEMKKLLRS

binding [2]	Substance	binding [1]
–	MOV10L1^V229E (yama mutant protein, endogenous in Mov10l1^fl/yama Ngn3-Cre mouse testis)	no binding
binds	MOV10L1 (wild type, endogenous in mouse testis)	binds
